Measurements published in paper doi:10.1101/2020.12.02.404004.
These are yes or no findings as the source states them, for the method shown.

The chains behind the UniProt entries cited, without tags or fusion partners. Residues count along the entry.
UniProt Q9KR64, residues 23-321: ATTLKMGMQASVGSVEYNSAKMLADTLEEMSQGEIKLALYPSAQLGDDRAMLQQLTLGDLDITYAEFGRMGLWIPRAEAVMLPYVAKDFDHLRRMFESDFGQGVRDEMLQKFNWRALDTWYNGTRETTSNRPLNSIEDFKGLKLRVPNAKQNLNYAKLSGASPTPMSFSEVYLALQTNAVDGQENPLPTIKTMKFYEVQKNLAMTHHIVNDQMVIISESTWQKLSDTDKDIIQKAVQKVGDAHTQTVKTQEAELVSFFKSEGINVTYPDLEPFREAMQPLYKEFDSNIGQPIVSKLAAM

Target: VcSiaP wild type, untagged (Vibrio cholerae) (UniProt Q9KR64)
Experiment: dynamic light scattering

VcSiaP wild type, untagged (from UniProt Q9KR64 23-321)
binding: no binding (tested: 40 mg/ml)
